# Measurements taken from article PMC6405930, “Conservation of the Amyloid Interactome Across Diverse Fibrillar Structures” (Scientific Reports, 2019).
# Experiments:
# [1] = In-solution digest of plasma, quantitative MS/MS (relative protein composition); set-up: species or system human; conditions: original plasma, no fibrils
# [2] = In-solution digest of CSF, quantitative MS/MS (relative protein composition); set-up: species or system human; key to Identification status: CSF: *: Identified, but not quantified; —: Not identified in any of the samples; conditions: original CSF; for Relative composition of CSF proteins: CSF: no fibrils
Molecule,Relative composition of plasma proteins: Plasma [1],Relative composition of CSF proteins: CSF [2],Identification status: CSF ([2]; symbol cells)
"Ig γ -3 chain C region: plasma/CSF protein bound to fibrils (protein, UniProt P01860 1-446, looked up) Immunoglobulin heavy constant …: ASTKGPSVFPLAPCSRSTSGGTAALGCLVKDYFPEPVTVSWNSGALTSGVHTFPAVLQSSGLYSLSSVVTVPSSSLGTQTYTCNVNHKPSNTKVDKRVELKTPLGDTTHTCPRCPEPKSCDTPPPCPRCPEPKSCDTPPPCPRCPEPKSCDTPPPCPRCPAPELLGGPSVFLFPPKPKDTLMISRTPEVTCVVVDVSHEDPEVQFKWYVDGVEVHNAKTKPREEQYNSTFRVVSVLTVLHQDWLNGKEYKCKVSNKALPAPIEKTISKTKGQPREPQVYTLPPSREEMTKNQVSLTCLVKGFYPSDIAVEWESSGQPENNYNTTPPMLDSDGSFFLYSKLTVDKSRWQQGNIFSCSVMHEALHNRFTQKSLSLSPELQLEESCAEAQDGELDGLWTTITIFITLFLLSVCYSATVTFFKVKWIFSSVVDLKQTIIPDYRNMIGQGA",6.7 ± 0.2 % of total protein,7.8 ± 0.3 % of total protein,
"C4b-binding protein β chain: plasma protein bound to fibrils (protein, UniProt P20851 18-252, looked up) C4b-binding protein beta chain: SDAEHCPELPPVDNSIFVAKEVEGQILGTYVCIKGYHLVGKKTLFCNASKEWDNTTTECRLGHCPDPVLVNGEFSSSGPVNVSDKITFMCNDHYILKGSNRSQCLEDHTWAPPFPICKSRDCDPPGNPVHGYFEGNNFTLGSTISYYCEDRYYLVGVQEQQCVDGEWSSALPVCKLIQEAPKPECEKALLAFQESKNLCEAMENFMQQLKESGMTMEELKYSLELKKAELKAKLL",0.0 ± 0.0 % of total protein,,
"Ig α-1 chain C region: plasma/CSF protein bound to fibrils (protein, UniProt P01876 1-398, looked up) Immunoglobulin heavy constant …: ASPTSPKVFPLSLCSTQPDGNVVIACLVQGFFPQEPLSVTWSESGQGVTARNFPPSQDASGDLYTTSSQLTLPATQCLAGKSVTCHVKHYTNPSQDVTVPCPVPSTPPTPSPSTPPTPSPSCCHPRLSLHRPALEDLLLGSEANLTCTLTGLRDASGVTFTWTPSSGKSAVQGPPERDLCGCYSVSSVLPGCAEPWNHGKTFTCTAAYPESKTPLTATLSKSGNTFRPEVHLLPPPSEELALNELVTLTCLARGFSPKDVLVRWLQGSQELPREKYLTWASRQEPSQGTTTFAVTSILRVAAEDWKKGDTFSCMVGHEALPLAFTQKTIDRLADWQMPPPYVVLDLPQETLEEETPGANLWPTTITFLTLFLLSLFYSTALTVTSVRGPSGNREGPQY",3.2 ± 0.1 % of total protein,1.9 ± 0.1 % of total protein,
"Ig γ -2 chain C region: plasma/CSF protein bound to fibrils (protein, UniProt P01859 1-395, looked up) Immunoglobulin heavy constant …: ASTKGPSVFPLAPCSRSTSESTAALGCLVKDYFPEPVTVSWNSGALTSGVHTFPAVLQSSGLYSLSSVVTVPSSNFGTQTYTCNVDHKPSNTKVDKTVERKCCVECPPCPAPPVAGPSVFLFPPKPKDTLMISRTPEVTCVVVDVSHEDPEVQFNWYVDGVEVHNAKTKPREEQFNSTFRVVSVLTVVHQDWLNGKEYKCKVSNKGLPAPIEKTISKTKGQPREPQVYTLPPSREEMTKNQVSLTCLVKGFYPSDISVEWESNGQPENNYKTTPPMLDSDGSFFLYSKLTVDKSRWQQGNVFSCSVMHEALHNHYTQKSLSLSPELQLEESCAEAQDGELDGLWTTITIFITLFLLSVCYSATITFFKVKWIFSSVVDLKQTIVPDYRNMIRQGA",6.0 ± 0.1 % of total protein,3.9 ± 0.1 % of total protein,
"Apolipoprotein A-IV: plasma/CSF protein bound to fibrils (protein, UniProt P06727 21-396, looked up) Apolipoprotein A-IV: EVSADQVATVMWDYFSQLSNNAKEAVEHLQKSELTQQLNALFQDKLGEVNTYAGDLQKKLVPFATELHERLAKDSEKLKEEIGKELEELRARLLPHANEVSQKIGDNLRELQQRLEPYADQLRTQVSTQAEQLRRQLTPYAQRMERVLRENADSLQASLRPHADELKAKIDQNVEELKGRLTPYADEFKVKIDQTVEELRRSLAPYAQDTQEKLNHQLEGLTFQMKKNAEELKARISASAEELRQRLAPLAEDVRGNLRGNTEGLQKSLAELGGHLDQQVEEFRRRVEPYGENFNKALVQQMEQLRQKLGPHAGDVEGHLSFLEKDLRDKVNSFFSTFKEKESQDKTLSLPELEQQQEQQQEQQQEQVQMLAPLES",0.2 ± 0.0 % of total protein,0.0 ± 0.0 % of total protein,
"Inter-α-trypsin inhibitor heavy chain H2: plasma protein bound to fibrils (protein, UniProt P19823 55-702, looked up) Inter-alpha-trypsin inhibitor …: SLPGESEEMMEEVDQVTLYSYKVQSTITSRMATTMIQSKVVNNSPQPQNVVFDVQIPKGAFISNFSMTVDGKTFRSSIKEKTVGRALYAQARAKGKTAGLVRSSALDMENFRTEVNVLPGAKVQFELHYQEVKWRKLGSYEHRIYLQPGRLAKHLEVDVWVIEPQGLRFLHVPDTFEGHFDGVPVISKGQQKAHVSFKPTVAQQRICPNCRETAVDGELVVLYDVKREEKAGELEVFNGYFVHFFAPDNLDPIPKNILFVIDVSGSMWGVKMKQTVEAMKTILDDLRAEDHFSVIDFNQNIRTWRNDLISATKTQVADAKRYIEKIQPSGGTNINEALLRAIFILNEANNLGLLDPNSVSLIILVSDGDPTVGELKLSKIQKNVKENIQDNISLFSLGMGFDVDYDFLKRLSNENHGIAQRIYGNQDTSSQLKKFYNQVSTPLLRNVQFNYPHTSVTDVTQNNFHNYFGGSEIVVAGKFDPAKLDQIESVITATSANTQLVLETLAQMDDLQDFLSKDKHADPDFTRKLWAYLTINQLLAERSLAPTAAAKRRITRSILQMSLDHHIVTPLTSLVIENEAGDERMLADAPPQDPSCCSGALYYGSKVVPDSTPSWANPSPTPVISMLAQGSQVLESTPPPHVMRVEND",0.2 ± 0.0 % of total protein,,
"Histidine-rich glycoprotein (protein, UniProt P04196 19-525, looked up) Histidine-rich glycoprotein: VSPTDCSAVEPEAEKALDLINKRRRDGYLFQLLRIADAHLDRVENTTVYYLVLDVQESDCSVLSRKYWNDCEPPDSRRPSEIVIGQCKVIATRHSHESQDLRVIDFNCTTSSVSSALANTKDSPVLIDFFEDTERYRKQANKALEKYKEENDDFASFRVDRIERVARVRGGEGTGYFVDFSVRNCPRHHFPRHPNVFGFCRADLFYDVEALDLESPKNLVINCEVFDPQEHENINGVPPHLGHPFHWGGHERSSTTKPPFKPHGSRDHHHPHKPHEHGPPPPPDERDHSHGPPLPQGPPPLLPMSCSSCQHATFGTNGAQRHSHNNNSSDLHPHKHHSHEQHPHGHHPHAHHPHEHDTHRQHPHGHHPHGHHPHGHHPHGHHPHGHHPHCHDFQDYGPCDPPPHNQGHCCHGHGPPPGHLRRRGPGKGPRPFHCRQIGSVYRLPPLRKGEVLPLPEANFPSFPLPHHKHPLKPDNQPFPQSVSESCPGKFKSGFPQVSMFFTHTFPK",0.0 ± 0.0 % of total protein,,*
"C4b-binding protein α chain: plasma protein bound to fibrils (protein, UniProt P04003 49-597, looked up) C4b-binding protein alpha …: NCGPPPTLSFAAPMDITLTETRFKTGTTLKYTCLPGYVRSHSTQTLTCNSDGEWVYNTFCIYKRCRHPGELRNGQVEIKTDLSFGSQIEFSCSEGFFLIGSTTSRCEVQDRGVGWSHPLPQCEIVKCKPPPDIRNGRHSGEENFYAYGFSVTYSCDPRFSLLGHASISCTVENETIGVWRPSPPTCEKITCRKPDVSHGEMVSGFGPIYNYKDTIVFKCQKGFVLRGSSVIHCDADSKWNPSPPACEPNSCINLPDIPHASWETYPRPTKEDVYVVGTVLRYRCHPGYKPTTDEPTTVICQKNLRWTPYQGCEALCCPEPKLNNGEITQHRKSRPANHCVYFYGDEISFSCHETSRFSAICQGDGTWSPRTPSCGDICNFPPKIAHGHYKQSSSYSFFKEEIIYECDKGYILVGQAKLSCSYSHWSAPAPQCKALCRKPELVNGRLSVDKDQYVEPENVTIQCDSGYGVVGPQSITCSGNRTWYPEVPKCEWETPEGCEQVLTGKRLMQCLPNPEDVKMALEVYKLSLEIEQLELQRDSARQSTLDKEL",0.1 ± 0.0 % of total protein,,
